# From publication PMC4233175 (Clinical cancer research : an official journal of the …, 2014)
# Tests used:
# Assay type in all cases: cell-based
# [1] = tested on: GIST882 cells (KIT K642E); test: Viability assay, GIST-derived cell line GIST882; conditions: Homo sapiens, GIST882, 72 h
# [2] = tested on: GIST430 cells (KIT Δ560-576); test: Viability assay, GIST-derived cell line GIST430; conditions: Homo sapiens, GIST430, 72 h
# [3] = tested on: GIST226 cells (KIT-independent); test: Viability assay, GIST-derived cell line GIST226; conditions: Homo sapiens, 72 h
# [4] = tested on: Ba/F3 cells harboring KIT exon 11 Δ551-554; test: Ba/F3 viability assay, KIT Δ551-554; conditions: Mus musculus, BaF3
# [5] = tested on: Ba/F3 cells harboring KIT exon 9 insertion (502AY); test: Ba/F3 viability assay, KIT exon 9 mutant; conditions: Mus musculus, BaF3
# [6] = tested on: GIST48/820 cells (KIT V560D / D820A); test: Viability assay, GIST-derived cell line GIST48/820; conditions: Homo sapiens, GIST48, 72 h
# [7] = tested on: GIST430/654 cells (KIT Δ560-576/ V654A); test: Viability assay, GIST-derived cell line GIST430/654; conditions: Homo sapiens, GIST-430/654, 72 h
# [8] = tested on: GIST430/654/680 cells (KIT Δ560-576/V654A/N680K); test: Viability assay, GIST-derived cell line GIST430/654/680; conditions: Homo sapiens, GIST-430/654, 72 h
# [9] = tested on: GIST48B cells (KIT-independent); test: Viability assay, GIST-derived cell line GIST48B; conditions: Homo sapiens, 72 h
# [10] = tested on: Ba/F3 cells harboring KIT exon 11 primary mutants; test: Ba/F3 viability assay, KIT exon 11 primary mutants; conditions: Mus musculus, BaF3
smiles,measurement,setting,value
Cc1ccc(NC(=O)c2ccc(CN3CCN(C)CC3)cc2)cc1Nc1nccc(-c2cccnc2)n1 [Imatinib],IC50,[1],173 nM
same,IC50,[2],61 nM
same,IC50,[3],> 5000 nM
same,IC50,[4],90 to 141 nM
same,IC50,[5],> 130 nM
same,IC50,[6],413 nM
same,IC50,[7],1200 nM
same,IC50,[8],> 5000 nM
same,IC50,[9],> 5000 nM
same,IC50,[10],≤ 30 nM
